Data taken from the supplement of paper PMC10849652.
The list shows a part of the results.

Chains of the proteins cited; added tags and fusions are not shown. Lines headed by an entry give the natural chain unless they say otherwise; changes in a name come on top.
UniProt Q12972: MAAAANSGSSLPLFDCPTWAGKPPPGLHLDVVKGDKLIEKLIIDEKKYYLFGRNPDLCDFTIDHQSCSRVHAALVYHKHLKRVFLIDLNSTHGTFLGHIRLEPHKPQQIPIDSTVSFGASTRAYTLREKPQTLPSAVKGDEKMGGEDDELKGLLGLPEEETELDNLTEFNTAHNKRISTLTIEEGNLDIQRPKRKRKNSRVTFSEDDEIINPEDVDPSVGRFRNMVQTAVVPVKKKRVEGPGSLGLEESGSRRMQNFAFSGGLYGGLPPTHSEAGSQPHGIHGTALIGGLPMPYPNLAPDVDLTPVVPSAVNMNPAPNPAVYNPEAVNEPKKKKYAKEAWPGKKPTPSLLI
UniProt Q9NY27: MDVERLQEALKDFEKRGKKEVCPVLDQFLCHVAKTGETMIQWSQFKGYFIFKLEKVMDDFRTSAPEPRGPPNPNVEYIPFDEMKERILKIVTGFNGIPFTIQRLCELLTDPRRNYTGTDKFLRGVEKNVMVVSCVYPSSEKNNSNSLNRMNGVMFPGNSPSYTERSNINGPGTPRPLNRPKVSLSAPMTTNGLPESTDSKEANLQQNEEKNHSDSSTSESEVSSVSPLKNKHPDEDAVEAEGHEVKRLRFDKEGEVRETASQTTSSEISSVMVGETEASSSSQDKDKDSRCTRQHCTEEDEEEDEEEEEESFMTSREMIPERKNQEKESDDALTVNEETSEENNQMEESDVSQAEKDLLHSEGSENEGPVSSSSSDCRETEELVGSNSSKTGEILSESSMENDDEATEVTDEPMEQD
UniProt Q14738, whole entry, looked up: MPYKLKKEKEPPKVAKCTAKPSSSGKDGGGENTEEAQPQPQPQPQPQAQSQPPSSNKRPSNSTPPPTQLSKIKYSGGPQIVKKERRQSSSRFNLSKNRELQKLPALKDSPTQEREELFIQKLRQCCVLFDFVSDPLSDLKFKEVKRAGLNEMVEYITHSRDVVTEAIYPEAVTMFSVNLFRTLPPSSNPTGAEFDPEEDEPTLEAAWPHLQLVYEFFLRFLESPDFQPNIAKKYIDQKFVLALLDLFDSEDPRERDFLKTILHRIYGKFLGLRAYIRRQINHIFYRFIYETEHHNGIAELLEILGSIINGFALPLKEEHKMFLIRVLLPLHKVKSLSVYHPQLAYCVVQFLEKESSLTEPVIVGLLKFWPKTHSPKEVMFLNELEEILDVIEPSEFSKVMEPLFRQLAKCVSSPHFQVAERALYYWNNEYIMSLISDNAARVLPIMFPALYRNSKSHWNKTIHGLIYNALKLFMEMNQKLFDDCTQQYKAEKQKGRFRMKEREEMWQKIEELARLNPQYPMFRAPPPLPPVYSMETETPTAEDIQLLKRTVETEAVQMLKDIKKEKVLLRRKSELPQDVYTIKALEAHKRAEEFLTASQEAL
UniProt Q15435: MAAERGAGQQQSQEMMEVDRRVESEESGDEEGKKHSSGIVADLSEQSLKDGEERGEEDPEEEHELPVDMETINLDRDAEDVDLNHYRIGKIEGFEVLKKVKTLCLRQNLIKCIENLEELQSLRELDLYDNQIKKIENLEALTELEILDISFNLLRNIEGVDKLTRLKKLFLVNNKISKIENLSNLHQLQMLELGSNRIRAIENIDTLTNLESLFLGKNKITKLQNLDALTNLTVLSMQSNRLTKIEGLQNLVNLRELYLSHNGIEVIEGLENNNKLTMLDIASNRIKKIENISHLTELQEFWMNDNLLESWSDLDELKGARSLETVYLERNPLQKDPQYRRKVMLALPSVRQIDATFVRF
UniProt Q99873, whole entry, looked up: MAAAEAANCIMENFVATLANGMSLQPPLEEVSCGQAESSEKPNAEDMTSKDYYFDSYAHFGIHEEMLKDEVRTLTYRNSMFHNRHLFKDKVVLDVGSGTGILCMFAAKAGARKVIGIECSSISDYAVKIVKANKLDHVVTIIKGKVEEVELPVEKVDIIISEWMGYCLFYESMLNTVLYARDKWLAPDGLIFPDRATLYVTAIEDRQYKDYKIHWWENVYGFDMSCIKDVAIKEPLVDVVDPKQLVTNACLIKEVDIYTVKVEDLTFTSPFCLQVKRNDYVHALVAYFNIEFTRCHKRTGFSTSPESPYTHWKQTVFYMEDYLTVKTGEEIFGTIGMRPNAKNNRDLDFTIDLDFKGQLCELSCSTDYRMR
UniProt P36873, whole entry, looked up: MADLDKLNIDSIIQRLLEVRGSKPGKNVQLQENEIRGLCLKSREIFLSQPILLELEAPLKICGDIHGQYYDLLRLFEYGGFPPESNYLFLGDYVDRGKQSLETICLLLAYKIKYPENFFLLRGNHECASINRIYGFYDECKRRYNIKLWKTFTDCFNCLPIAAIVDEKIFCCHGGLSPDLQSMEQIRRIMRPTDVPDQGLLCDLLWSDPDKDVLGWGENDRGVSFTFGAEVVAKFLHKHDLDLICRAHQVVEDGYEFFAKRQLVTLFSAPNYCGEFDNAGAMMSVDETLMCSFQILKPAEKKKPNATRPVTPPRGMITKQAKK
UniProt Q66LE6: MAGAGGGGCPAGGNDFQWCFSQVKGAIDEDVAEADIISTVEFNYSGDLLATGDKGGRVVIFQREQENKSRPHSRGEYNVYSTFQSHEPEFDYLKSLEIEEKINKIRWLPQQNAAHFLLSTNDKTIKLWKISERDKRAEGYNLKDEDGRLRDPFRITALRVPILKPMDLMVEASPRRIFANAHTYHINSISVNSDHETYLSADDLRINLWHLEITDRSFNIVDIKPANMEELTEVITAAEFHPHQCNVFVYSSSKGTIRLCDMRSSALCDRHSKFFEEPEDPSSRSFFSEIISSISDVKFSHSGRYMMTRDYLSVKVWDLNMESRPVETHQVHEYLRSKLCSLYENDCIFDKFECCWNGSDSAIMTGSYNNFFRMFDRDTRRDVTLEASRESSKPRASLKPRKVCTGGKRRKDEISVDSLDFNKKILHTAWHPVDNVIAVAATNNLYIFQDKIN
UniProt P63098, whole entry, looked up: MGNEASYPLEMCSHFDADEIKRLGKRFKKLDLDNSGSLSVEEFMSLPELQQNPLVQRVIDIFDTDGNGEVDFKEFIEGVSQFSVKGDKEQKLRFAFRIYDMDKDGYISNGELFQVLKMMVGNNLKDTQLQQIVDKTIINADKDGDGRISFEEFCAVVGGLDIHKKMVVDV
UniProt P11908: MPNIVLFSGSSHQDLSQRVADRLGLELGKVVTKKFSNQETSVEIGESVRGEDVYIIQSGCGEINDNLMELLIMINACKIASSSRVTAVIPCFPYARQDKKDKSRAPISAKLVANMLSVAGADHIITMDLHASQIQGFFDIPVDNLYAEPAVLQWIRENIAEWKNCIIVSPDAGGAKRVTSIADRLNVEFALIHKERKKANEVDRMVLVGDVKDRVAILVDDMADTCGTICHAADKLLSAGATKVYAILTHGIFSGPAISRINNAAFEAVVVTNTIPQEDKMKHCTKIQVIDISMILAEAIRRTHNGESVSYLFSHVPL
UniProt Q9H875: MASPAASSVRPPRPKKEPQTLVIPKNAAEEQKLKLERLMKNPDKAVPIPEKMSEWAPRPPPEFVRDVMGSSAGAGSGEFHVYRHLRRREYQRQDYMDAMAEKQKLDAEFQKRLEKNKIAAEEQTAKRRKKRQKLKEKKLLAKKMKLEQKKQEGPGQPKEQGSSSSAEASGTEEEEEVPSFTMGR
UniProt O00743: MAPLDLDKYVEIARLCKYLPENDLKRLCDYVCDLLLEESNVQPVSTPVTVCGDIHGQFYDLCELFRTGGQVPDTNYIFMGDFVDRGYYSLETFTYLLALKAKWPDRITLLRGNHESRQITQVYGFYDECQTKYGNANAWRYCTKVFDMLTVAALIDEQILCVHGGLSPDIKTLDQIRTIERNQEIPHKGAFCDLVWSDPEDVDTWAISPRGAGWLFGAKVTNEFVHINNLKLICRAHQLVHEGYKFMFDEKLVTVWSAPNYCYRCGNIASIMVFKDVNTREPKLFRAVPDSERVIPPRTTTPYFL
UniProt Q96M27: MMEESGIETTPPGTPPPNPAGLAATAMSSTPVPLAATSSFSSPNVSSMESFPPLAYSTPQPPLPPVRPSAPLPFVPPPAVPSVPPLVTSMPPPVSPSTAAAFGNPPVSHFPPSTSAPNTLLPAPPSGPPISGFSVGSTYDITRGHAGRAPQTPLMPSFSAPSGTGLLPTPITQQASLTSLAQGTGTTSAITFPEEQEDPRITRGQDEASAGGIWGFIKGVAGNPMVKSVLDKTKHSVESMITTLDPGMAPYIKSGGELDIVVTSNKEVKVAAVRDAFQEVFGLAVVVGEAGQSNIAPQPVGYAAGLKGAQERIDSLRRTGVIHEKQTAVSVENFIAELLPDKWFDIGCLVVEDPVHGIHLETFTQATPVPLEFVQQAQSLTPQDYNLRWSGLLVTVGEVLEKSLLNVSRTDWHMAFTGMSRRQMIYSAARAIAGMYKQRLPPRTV
UniProt P63151: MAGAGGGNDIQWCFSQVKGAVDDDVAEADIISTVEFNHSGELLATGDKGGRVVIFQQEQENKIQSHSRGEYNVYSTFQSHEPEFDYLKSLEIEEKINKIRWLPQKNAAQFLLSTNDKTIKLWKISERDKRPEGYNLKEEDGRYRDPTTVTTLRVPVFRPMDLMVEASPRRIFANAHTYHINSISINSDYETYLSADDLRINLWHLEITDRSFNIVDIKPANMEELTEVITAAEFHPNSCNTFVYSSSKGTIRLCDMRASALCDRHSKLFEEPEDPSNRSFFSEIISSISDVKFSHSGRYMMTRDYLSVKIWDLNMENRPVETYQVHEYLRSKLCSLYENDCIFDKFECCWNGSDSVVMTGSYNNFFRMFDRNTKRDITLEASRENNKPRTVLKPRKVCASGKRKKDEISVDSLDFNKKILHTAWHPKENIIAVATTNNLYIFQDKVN
UniProt Q9HCU5: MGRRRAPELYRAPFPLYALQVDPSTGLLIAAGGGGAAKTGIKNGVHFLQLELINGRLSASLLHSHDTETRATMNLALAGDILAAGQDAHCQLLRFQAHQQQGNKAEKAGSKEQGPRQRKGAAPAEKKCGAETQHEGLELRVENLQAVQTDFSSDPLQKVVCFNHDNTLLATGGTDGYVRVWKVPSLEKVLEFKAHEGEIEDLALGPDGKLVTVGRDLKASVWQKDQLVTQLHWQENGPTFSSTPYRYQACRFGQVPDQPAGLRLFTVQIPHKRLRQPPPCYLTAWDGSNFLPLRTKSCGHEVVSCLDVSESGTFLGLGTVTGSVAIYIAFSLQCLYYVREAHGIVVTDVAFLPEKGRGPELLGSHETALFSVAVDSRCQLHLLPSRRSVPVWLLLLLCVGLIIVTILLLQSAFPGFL
UniProt P62714, whole entry, looked up: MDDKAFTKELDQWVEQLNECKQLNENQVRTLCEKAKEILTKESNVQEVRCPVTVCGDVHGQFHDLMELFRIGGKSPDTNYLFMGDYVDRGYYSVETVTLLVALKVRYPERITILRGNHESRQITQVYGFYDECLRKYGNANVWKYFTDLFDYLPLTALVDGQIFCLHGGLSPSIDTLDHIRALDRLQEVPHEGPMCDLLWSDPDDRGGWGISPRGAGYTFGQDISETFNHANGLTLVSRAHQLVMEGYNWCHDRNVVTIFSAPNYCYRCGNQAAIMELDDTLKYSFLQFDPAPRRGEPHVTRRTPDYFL
UniProt Q6NYC8: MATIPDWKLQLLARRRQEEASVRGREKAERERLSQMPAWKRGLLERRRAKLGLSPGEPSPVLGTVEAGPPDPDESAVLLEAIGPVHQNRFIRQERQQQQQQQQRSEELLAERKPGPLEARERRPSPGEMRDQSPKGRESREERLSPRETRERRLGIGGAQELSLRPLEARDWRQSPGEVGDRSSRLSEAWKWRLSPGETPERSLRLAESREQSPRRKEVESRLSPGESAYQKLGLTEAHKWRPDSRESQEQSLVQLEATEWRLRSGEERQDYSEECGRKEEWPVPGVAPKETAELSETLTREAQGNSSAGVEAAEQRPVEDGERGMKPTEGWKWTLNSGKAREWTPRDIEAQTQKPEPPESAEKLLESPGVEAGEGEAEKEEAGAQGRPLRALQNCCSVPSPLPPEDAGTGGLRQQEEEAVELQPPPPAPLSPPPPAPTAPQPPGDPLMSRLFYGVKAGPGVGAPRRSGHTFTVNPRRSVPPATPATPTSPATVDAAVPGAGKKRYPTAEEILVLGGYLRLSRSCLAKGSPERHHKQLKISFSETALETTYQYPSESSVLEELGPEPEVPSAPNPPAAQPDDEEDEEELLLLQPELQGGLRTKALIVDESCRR
UniProt Q9ULR3: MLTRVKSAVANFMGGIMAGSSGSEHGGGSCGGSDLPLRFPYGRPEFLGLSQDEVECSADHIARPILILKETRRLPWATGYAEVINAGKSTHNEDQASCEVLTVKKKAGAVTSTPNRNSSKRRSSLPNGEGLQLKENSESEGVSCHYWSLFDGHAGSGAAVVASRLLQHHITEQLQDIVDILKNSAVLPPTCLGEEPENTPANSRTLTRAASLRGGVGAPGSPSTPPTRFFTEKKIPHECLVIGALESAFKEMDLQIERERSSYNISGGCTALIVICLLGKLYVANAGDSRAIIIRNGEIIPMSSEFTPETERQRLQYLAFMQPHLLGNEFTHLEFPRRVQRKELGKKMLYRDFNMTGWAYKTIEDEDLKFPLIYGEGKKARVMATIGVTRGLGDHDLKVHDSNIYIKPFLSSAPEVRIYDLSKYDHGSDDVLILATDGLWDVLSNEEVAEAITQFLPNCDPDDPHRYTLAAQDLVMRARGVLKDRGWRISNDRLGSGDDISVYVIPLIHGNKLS

Assays:
Experiment in all cases: log2 fold change, soluble protein after heating vs DMSO (PISA); higher = thermal stabilisation; K562 cells, 10 uM, 30 min; active = over 0.2 and 3.5 SD of the protein, either way, in both replicates (recomputed)
saracatinib = compound: CN1CCN(CCOc2cc(OC3CCOCC3)c3c(Nc4c(Cl)ccc5c4OCO5)ncnc3c2)CC1 [saracatinib]
Procedure, shortened: (§1)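 Aliquots of K562 cells (2×10^6 cells/mL) treated with 10 μM compound for 30 min were heated for 3 min over 48°C-58°C. After pooling and extraction in PBS with 0.5% NP-40 at 4°C, soluble protein from a 21,000xg, 90 min spin was quantified by TMTpro 16plex LC-MS/MS with channel sums equalised. Thermal stability is expressed against control samples, from duplicates, as a log2 fold change.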

sotrastaurin = compound: CN1CCN(c2nc(C3=C(c4c[nH]c5ccccc45)C(=O)NC3=O)c3ccccc3n2)CC1 [sotrastaurin]
Procedure, shortened: as §1

alvocidib = compound: CN1CC[C@H](c2c(O)cc(O)c3c(=O)cc(-c4ccccc4Cl)oc23)[C@H](O)C1 [alvocidib]
Procedure, shortened: as §1

Tubastatin A = compound: CN1CCc2c(c3ccccc3n2Cc2ccc(C(=O)NO)cc2)C1 [Tubastatin A]
Procedure, shortened: as §1

[1] = compound: CNC(=O)C1=CC=CC=C1NC2=NC(=NC=C2Cl)NC3=C(C=C(C=C3)N4CCOCC4)OC
Procedure, shortened: as §1

defactinib = compound: CNC(=O)c1ccc(Nc2ncc(C(F)(F)F)c(NCc3nccnc3N(C)S(C)(=O)=O)n2)cc1 [defactinib]
Procedure, shortened: as §1

rucaparib = compound: CNCc1ccc(-c2[nH]c3cc(F)cc4c3c2CCNC4=O)cc1 [rucaparib]
Procedure, shortened: as §1

[2] = compound: CNc1nc(-c2ccc3c(N)n[nH]c3c2)cc(N2C[C@@H](C(=O)NC3CCCCC3)CC[C@H]2C)n1
Procedure, shortened: as §1

encorafenib = compound: COC(=O)N[C@@H](C)CNc1nccc(-c2cn(C(C)C)nc2-c2cc(Cl)cc(NS(C)(=O)=O)c2F)n1 [encorafenib]
Procedure, shortened: as §1

[3] = compound: COC(=O)[C@H](CCSC)NC(=O)C1=C(C=C(C=C1)NC[C@H](CS)N)C2=CC=CC=C2
Procedure, shortened: as §1

Measured: log2 fold change

PPP4C (UniProt P60510)
inactive: saracatinib 0.081 | sotrastaurin 0.03 | alvocidib 0.012 | Tubastatin A 0.011 | [1] -0.038 | defactinib -0.021 | rucaparib 0.027 | [2] 0.059 | encorafenib 0.024 | [3] 0.015

PPP1R8 (UniProt Q12972)
inactive: saracatinib 0.018 | sotrastaurin -0.031 | alvocidib -0.066 | Tubastatin A 0.019 | [1] 0.014 | defactinib -0.038 | rucaparib 0 | [2] 0.001 | encorafenib 0.002 | [3] -0.009

PPP2R1A (UniProt P30153)
inactive: saracatinib -0.01 | sotrastaurin -0.012 | alvocidib -0.065 | Tubastatin A -0.03 | [1] 0.046 | defactinib -0.025 | rucaparib -0.085 | [2] -0.018 | encorafenib 0.014 | [3] -0.007

PPP4R2 (UniProt Q9NY27)
inactive: saracatinib 0.042 | sotrastaurin 0.021 | alvocidib -0.035 | Tubastatin A -0.001 | [1] 0.054 | defactinib -0.124 | rucaparib 0 | [2] -0.079 | encorafenib 0.008 | [3] 0.063

PREP (UniProt P48147)
inactive: saracatinib -0.031 | sotrastaurin -0.063 | alvocidib -0.036 | Tubastatin A 0.077 | [1] 0.014 | defactinib -0.079 | rucaparib 0.154 | [2] 0.048 | encorafenib 0.161 | [3] -0.029

PPP2R5D (UniProt Q14738)
inactive: saracatinib 0.042 | sotrastaurin -0.121 | alvocidib -0.074 | Tubastatin A 0.06 | [1] 0.069 | defactinib -0.029 | rucaparib 0.019 | [2] -0.014 | encorafenib 0.08 | [3] -0.056

PPP1R7 (UniProt Q15435)
inactive: saracatinib 0.037 | sotrastaurin 0.048 | alvocidib 0.009 | Tubastatin A -0.052 | [1] -0.008 | defactinib 0.017 | rucaparib -0.029 | [2] 0.001 | encorafenib -0.054 | [3] 0.032

PRMT1 (UniProt Q99873)
inactive: saracatinib 0.012 | sotrastaurin 0.019 | alvocidib -0.058 | Tubastatin A -0.028 | [1] 0 | defactinib 0.013 | rucaparib -0.023 | [2] 0.036 | encorafenib 0.004 | [3] -0.042

PPP1CC isoform 2 (UniProt P36873)
inactive: saracatinib 0.007 | sotrastaurin 0.03 | alvocidib -0.043 | Tubastatin A -0.021 | [1] -0.056 | defactinib -0.006 | rucaparib -0.019 | [2] -0.022 | encorafenib -0.015 | [3] -0.016

PPP3CA (UniProt Q08209)
inactive: saracatinib -0.002 | sotrastaurin 0.02 | alvocidib 0.051 | Tubastatin A -0.067 | [1] -0.062 | defactinib -0.122 | rucaparib -0.048 | [2] -0.087 | encorafenib -0.122 | [3] 0.127

PPP2CA (UniProt P67775)
inactive: saracatinib 0.014 | sotrastaurin 0.05 | alvocidib -0.012 | Tubastatin A 0.001 | [1] -0.001 | defactinib -0.033 | rucaparib -0.094 | [2] -0.028 | encorafenib 0.031 | [3] 0.021

PPP4R3A (UniProt Q6IN85)
inactive: saracatinib 0.007 | sotrastaurin 0.045 | alvocidib -0.042 | Tubastatin A 0.006 | [1] 0.035 | defactinib -0.04 | rucaparib -0.006 | [2] -0.066 | encorafenib -0.004 | [3] 0.029

PRMT9 (UniProt Q6P2P2)
inactive: saracatinib 0.07 | sotrastaurin 0.233 | alvocidib 0.005 | Tubastatin A -0.031 | [1] 0.065 | defactinib -0.025 | rucaparib 0.083 | [2] 0.013 | encorafenib -0.098 | [3] -0.018

PPP2R2D (UniProt Q66LE6)
inactive: saracatinib -0.095 | sotrastaurin 0.06 | alvocidib 0.006 | Tubastatin A 0.011 | [1] 0.097 | defactinib -0.003 | rucaparib 0.02 | [2] -0.066 | encorafenib -0.077 | [3] 0.108

PPP3R1 (UniProt P63098)
inactive: saracatinib 0.075 | sotrastaurin 0.027 | alvocidib -0.003 | Tubastatin A 0.053 | [1] 0.082 | defactinib -0.03 | rucaparib -0.012 | [2] -0.058 | encorafenib 0.018 | [3] -0.01

PRKCI (UniProt P41743)
inactive: saracatinib 0.008 | sotrastaurin -0.022 | alvocidib -0.019 | Tubastatin A 0.008 | [1] 0.069 | defactinib -0.039 | rucaparib 0.001 | [2] -0.08 | encorafenib 0.014 | [3] -0.051

Pulled one by one from above, two records:
PPP2CA (UniProt P67775)
inactive: saracatinib 0.014 | sotrastaurin 0.05 | alvocidib -0.012 | Tubastatin A 0.001 | [1] -0.001 | defactinib -0.033 | rucaparib -0.094 | [2] -0.028 | encorafenib 0.031 | [3] 0.021

PPP4R3A (UniProt Q6IN85)
inactive: saracatinib 0.007 | sotrastaurin 0.045 | alvocidib -0.042 | Tubastatin A 0.006 | [1] 0.035 | defactinib -0.04 | rucaparib -0.006 | [2] -0.066 | encorafenib -0.004 | [3] 0.029

Further records follow:

PRPS2 isoform 2 (UniProt P11908)
inactive: saracatinib 0.009 | sotrastaurin 0.054 | alvocidib -0.006 | Tubastatin A 0.002 | [1] -0.013 | defactinib 0.038 | rucaparib -0.029 | [2] -0.026 | encorafenib 0.008 | [3] -0.003

PRKRIP1 (UniProt Q9H875)
inactive: saracatinib 0.09 | sotrastaurin -0.059 | alvocidib 0.05 | Tubastatin A -0.033 | [1] -0.047 | defactinib 0.155 | rucaparib 0.053 | [2] -0.033 | encorafenib -0.007 | [3] 0.032

PPP6C isoform 3 (UniProt O00743)
inactive: saracatinib 0.052 | sotrastaurin 0.033 | alvocidib 0.013 | Tubastatin A -0.071 | [1] 0.002 | defactinib 0.002 | rucaparib -0.005 | [2] -0.025 | encorafenib 0.004 | [3] 0.051

PPWD1 (UniProt Q96BP3)
inactive: saracatinib 0.004 | sotrastaurin -0.027 | alvocidib -0.022 | Tubastatin A -0.017 | [1] 0.01 | defactinib 0.01 | rucaparib -0.041 | [2] 0.037 | encorafenib 0.004 | [3] -0.014

PPP6R2 isoform 5 (UniProt O75170)
inactive: saracatinib 0.031 | sotrastaurin -0.043 | alvocidib -0.032 | Tubastatin A -0.05 | [1] -0.005 | defactinib -0.016 | rucaparib -0.044 | [2] -0.032 | encorafenib 0.051 | [3] -0.034

PPP1R11 (UniProt O60927)
inactive: saracatinib 0.104 | sotrastaurin 0.05 | alvocidib 0.138 | Tubastatin A -0.167 | [1] 0.004 | defactinib 0.004 | rucaparib -0.026 | [2] 0.023 | encorafenib 0 | [3] 0.143

PRRC1 (UniProt Q96M27)
inactive: saracatinib -0.009 | sotrastaurin 0.067 | alvocidib 0.003 | Tubastatin A -0.035 | [1] -0.042 | defactinib 0.003 | rucaparib 0.012 | [2] -0.037 | encorafenib -0.015 | [3] 0.04

PPP2R2A isoform 2 (UniProt P63151)
inactive: saracatinib 0.036 | sotrastaurin 0.042 | alvocidib -0.029 | Tubastatin A -0.046 | [1] -0.031 | defactinib -0.019 | rucaparib -0.027 | [2] -0.047 | encorafenib 0 | [3] 0.002

PREB (UniProt Q9HCU5)
inactive: saracatinib 0.018 | sotrastaurin 0 | alvocidib -0.007 | Tubastatin A -0.016 | [1] 0.012 | defactinib 0.01 | rucaparib -0.02 | [2] -0.02 | encorafenib -0.013 | [3] 0.026

PPP3CB isoform 4 (UniProt P16298)
inactive: saracatinib 0.006 | sotrastaurin 0.061 | alvocidib -0.019 | Tubastatin A 0.017 | [1] -0.026 | defactinib -0.004 | rucaparib -0.084 | [2] -0.192 | encorafenib -0.022 | [3] 0.029

PRKDC (UniProt P78527)
inactive: saracatinib 0.008 | sotrastaurin 0.006 | alvocidib -0.07 | Tubastatin A -0.021 | [1] 0.002 | defactinib -0.057 | rucaparib -0.019 | [2] -0.004 | encorafenib 0.039 | [3] -0.023

PPP2CB (UniProt P62714)
inactive: saracatinib 0.035 | sotrastaurin 0.044 | alvocidib -0.01 | Tubastatin A -0.019 | [1] -0.017 | defactinib 0 | rucaparib -0.027 | [2] -0.036 | encorafenib 0.006 | [3] 0.051

PPP1R18 (UniProt Q6NYC8)
inactive: saracatinib 0.013 | sotrastaurin -0.028 | alvocidib -0.073 | Tubastatin A 0.026 | [1] -0.01 | defactinib -0.148 | rucaparib 0 | [2] -0.046 | encorafenib 0.007 | [3] -0.055

PPM1H (UniProt Q9ULR3)
inactive: saracatinib 0.01 | sotrastaurin 0.074 | alvocidib -0.057 | Tubastatin A 0.012 | [1] 0.005 | defactinib -0.023 | rucaparib -0.094 | [2] -0.014 | encorafenib -0.007 | [3] 0.015
